The record followed here is the supplement of paper PMC12819154, “High-throughput peptide-centric local stability assay extends protein–ligand identification to membrane proteins, tissues and bacteria” (Nature Structural & Molecular Biology, 2025).

By UniProt entry, the sequences of proteins in these tests, tags left out. Where a name states a change or a piece, a line headed by the entry shows the natural chain unless it says otherwise.
UniProt Q91WU5: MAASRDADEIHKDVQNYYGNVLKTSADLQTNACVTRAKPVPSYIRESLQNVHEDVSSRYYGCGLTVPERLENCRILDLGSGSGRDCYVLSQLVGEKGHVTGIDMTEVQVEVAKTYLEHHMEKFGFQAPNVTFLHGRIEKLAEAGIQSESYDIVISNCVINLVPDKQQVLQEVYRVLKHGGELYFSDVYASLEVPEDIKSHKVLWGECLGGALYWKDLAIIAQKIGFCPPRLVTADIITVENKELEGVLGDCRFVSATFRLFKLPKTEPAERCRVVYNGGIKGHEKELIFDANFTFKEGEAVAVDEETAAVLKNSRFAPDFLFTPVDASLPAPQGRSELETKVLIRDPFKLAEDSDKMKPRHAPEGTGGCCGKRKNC
UniProt Q91X46: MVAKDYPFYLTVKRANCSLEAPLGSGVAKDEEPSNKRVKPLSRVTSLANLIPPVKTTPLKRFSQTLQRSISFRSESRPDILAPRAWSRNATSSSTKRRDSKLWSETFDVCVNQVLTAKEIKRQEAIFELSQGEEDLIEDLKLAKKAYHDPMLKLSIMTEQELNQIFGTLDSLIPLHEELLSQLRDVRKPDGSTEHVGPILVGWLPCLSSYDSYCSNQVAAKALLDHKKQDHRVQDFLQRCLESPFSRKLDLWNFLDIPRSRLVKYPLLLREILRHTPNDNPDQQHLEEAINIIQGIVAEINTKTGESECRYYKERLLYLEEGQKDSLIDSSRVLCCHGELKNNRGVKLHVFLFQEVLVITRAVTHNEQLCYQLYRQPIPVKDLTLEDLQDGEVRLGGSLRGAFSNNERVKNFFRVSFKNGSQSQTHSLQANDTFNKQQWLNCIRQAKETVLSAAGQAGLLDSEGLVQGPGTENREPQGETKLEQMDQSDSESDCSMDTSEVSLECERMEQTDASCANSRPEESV
UniProt Q91ZE0: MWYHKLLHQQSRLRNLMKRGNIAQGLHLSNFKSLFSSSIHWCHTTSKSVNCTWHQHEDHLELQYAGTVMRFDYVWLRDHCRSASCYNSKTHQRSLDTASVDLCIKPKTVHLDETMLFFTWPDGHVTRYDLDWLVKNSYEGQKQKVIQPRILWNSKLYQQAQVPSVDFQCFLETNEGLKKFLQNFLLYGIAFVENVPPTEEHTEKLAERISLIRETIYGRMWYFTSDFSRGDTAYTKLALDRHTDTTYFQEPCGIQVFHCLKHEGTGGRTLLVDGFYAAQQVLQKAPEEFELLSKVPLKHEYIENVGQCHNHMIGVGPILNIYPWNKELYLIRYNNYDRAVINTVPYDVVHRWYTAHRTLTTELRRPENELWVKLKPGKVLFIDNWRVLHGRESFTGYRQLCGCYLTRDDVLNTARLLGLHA
UniProt Q91XS1: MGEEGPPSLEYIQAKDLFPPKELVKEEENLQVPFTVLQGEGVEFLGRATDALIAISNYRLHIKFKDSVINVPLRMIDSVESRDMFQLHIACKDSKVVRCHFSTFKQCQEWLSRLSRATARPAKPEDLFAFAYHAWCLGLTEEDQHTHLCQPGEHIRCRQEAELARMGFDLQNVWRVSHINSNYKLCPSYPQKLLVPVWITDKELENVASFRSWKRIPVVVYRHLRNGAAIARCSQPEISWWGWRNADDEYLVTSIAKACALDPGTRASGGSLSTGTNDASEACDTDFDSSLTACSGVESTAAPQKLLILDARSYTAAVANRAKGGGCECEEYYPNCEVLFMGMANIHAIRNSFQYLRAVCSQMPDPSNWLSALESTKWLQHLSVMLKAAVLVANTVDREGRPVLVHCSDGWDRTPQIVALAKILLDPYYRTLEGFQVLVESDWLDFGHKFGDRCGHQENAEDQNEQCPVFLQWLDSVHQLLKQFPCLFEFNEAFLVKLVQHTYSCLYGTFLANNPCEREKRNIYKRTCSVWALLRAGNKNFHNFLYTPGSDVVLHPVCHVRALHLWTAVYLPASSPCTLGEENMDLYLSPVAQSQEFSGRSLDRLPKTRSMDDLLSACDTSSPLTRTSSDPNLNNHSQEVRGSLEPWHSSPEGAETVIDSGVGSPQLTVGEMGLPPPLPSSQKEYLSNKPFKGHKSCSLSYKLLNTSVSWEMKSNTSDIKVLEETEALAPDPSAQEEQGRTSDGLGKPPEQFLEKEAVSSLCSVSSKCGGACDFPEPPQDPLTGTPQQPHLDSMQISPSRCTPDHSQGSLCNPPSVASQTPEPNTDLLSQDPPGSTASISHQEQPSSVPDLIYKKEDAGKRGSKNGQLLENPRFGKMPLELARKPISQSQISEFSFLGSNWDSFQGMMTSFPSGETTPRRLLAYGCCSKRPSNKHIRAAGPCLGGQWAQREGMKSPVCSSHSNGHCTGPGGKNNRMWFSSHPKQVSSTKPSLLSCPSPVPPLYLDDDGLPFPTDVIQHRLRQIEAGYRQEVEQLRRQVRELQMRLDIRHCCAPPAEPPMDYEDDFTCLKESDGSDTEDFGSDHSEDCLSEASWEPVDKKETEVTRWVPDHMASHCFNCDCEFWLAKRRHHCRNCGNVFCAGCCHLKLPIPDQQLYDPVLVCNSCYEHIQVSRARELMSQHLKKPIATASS
UniProt Q91YN0: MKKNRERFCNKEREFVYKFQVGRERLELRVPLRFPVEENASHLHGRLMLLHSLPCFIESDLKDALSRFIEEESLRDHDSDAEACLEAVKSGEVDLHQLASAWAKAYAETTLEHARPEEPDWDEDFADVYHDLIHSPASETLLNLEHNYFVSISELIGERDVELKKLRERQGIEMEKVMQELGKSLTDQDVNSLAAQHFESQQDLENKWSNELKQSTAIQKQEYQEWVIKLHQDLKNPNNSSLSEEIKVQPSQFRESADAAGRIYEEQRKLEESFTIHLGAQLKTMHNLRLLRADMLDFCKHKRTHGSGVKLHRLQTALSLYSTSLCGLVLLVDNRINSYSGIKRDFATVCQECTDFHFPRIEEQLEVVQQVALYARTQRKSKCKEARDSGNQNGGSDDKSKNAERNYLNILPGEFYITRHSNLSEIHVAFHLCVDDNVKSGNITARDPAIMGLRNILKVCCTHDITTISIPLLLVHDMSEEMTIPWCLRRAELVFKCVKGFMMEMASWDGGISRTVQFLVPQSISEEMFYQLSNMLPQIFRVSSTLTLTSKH
UniProt Q91VH6: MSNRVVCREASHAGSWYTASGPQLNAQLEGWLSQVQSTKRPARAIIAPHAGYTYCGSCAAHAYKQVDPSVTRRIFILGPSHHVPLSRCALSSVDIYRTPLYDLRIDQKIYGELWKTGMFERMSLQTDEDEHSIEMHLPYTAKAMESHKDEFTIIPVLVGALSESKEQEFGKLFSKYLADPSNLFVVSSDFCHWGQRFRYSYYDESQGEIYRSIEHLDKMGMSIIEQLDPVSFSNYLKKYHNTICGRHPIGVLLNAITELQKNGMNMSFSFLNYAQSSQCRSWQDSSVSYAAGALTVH
UniProt Q91WM2: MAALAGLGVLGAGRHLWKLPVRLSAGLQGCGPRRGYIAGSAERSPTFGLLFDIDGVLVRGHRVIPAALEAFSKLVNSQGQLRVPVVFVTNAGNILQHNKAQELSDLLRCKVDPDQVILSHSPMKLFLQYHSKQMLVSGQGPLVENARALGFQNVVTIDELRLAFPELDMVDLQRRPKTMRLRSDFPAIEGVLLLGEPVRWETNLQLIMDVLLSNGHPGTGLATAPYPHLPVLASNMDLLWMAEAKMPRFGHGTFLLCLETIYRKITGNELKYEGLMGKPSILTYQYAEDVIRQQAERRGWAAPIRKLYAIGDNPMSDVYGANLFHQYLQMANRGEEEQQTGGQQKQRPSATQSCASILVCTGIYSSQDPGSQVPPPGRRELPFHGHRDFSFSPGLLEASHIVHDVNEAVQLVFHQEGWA
UniProt Q91VT1: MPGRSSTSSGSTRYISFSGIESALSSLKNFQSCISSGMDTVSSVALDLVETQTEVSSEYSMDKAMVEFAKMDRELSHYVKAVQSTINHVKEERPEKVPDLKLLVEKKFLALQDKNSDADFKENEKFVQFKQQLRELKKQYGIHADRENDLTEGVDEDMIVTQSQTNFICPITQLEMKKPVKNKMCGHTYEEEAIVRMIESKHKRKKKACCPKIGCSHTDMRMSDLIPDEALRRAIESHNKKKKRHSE
UniProt Q91ZP6: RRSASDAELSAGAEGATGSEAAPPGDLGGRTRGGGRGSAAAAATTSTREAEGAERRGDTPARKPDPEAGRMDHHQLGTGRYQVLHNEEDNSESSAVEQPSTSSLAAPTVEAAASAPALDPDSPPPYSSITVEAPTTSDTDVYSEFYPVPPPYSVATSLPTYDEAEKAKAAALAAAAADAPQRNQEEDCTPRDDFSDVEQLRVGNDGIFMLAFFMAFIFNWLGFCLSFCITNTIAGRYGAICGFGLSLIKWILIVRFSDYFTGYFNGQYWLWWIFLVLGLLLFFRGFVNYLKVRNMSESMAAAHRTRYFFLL
UniProt Q91VK1: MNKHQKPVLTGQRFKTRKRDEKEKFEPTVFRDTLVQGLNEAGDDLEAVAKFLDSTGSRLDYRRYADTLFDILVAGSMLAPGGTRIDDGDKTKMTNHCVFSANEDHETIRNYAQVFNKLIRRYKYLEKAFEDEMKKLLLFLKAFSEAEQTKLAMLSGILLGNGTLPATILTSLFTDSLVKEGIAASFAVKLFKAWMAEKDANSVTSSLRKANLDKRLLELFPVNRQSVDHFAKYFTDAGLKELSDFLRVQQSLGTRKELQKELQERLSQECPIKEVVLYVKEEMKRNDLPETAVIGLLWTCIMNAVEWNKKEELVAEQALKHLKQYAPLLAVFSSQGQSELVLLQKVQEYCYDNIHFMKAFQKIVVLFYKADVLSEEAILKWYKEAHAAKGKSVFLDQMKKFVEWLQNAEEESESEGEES
UniProt Q91VC7: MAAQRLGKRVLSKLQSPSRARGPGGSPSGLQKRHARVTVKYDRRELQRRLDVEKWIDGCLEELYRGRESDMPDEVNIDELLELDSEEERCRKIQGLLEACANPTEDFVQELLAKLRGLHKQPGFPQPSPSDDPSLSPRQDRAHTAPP
UniProt Q91WK1: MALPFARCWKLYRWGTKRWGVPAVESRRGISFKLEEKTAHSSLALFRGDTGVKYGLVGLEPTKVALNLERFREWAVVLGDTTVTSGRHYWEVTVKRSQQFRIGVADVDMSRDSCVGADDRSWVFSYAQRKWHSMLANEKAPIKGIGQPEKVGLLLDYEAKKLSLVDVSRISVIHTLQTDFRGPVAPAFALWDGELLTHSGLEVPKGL
UniProt Q91V76: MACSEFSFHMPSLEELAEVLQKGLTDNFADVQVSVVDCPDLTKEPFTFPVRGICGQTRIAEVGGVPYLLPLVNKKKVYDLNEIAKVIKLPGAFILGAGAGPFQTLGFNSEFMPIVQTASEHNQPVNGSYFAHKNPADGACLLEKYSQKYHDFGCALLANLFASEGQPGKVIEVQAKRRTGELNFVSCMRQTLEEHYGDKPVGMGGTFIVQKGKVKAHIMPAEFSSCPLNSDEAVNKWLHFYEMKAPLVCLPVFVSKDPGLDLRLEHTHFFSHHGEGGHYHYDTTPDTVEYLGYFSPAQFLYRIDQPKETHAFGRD
UniProt Q91WF3: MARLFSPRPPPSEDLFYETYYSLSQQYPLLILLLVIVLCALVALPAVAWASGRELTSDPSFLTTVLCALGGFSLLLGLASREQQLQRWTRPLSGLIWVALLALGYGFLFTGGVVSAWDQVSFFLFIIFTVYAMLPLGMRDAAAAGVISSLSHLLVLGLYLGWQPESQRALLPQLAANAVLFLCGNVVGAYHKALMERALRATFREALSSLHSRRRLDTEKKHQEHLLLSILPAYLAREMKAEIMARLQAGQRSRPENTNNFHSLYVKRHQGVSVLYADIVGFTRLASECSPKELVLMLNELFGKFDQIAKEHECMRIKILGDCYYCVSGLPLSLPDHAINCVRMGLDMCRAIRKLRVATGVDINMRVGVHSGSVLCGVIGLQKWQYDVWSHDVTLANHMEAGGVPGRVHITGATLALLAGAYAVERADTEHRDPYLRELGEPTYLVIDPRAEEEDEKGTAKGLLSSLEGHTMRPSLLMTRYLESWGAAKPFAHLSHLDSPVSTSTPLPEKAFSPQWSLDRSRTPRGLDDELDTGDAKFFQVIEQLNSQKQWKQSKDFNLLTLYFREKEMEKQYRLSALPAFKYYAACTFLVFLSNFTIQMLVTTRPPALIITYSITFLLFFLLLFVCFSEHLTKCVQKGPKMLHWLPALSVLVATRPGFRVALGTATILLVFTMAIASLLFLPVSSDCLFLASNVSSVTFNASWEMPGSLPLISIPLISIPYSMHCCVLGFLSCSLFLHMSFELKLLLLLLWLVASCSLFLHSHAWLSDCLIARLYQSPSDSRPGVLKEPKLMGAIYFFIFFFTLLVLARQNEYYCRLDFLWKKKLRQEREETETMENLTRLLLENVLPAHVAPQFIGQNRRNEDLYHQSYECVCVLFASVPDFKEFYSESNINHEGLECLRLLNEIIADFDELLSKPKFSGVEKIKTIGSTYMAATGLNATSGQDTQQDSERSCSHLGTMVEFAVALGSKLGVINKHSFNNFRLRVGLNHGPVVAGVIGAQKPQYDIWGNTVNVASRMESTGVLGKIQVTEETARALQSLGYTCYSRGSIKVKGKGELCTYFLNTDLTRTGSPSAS

The list shows a part of the results. Small differences around the control level are noise.

Compound in the assay: CN[C@@H]1C[C@H]2O[C@@](C)([C@@H]1OC)n1c3ccccc3c3c4c(c5c6ccccc6n2c5c31)C(=O)NC4 [staurosporine]
The assay is described as follows: log2 fold change of tryptic peptide abundance, ligand vs vehicle (limited proteolysis) (log2 ratio); higher = more trypsin-susceptible (destabilized). The settings on record: ligand concentration: 20 uM; sample: mouse liver crude lysate; replicate design: treated separately.
As to “UniProt Q91V87 (peptide sequence: TIHSGWSR, peptide start residue: 65)”, the log2 fold change is 0.0839. Turning to “UniProt Q91YY4 (peptide sequence: TAAGTLFVHLCSESSTVK, peptide start residue: 266)”, the log2 fold change is -0.214. Then “UniProt Q91WU5 (peptide sequence: QQVLQEVYR, peptide start residue: 166)”, with 0.266; and “UniProt Q91XC0 (peptide sequence: LETTAPALSPR, peptide start residue: 121)”, with -0.243. As for “UniProt Q91W78 (peptide sequence: SKPGTGFHR, peptide start residue: 26)”, the log2 fold change is 0.155. Then “UniProt Q8VHL1 (peptide sequence: AFQATQQK, peptide start residue: 359)”, with -0.0925; and “UniProt Q91W64 (peptide sequence: KTTQDVEFR, peptide start residue: 368)”, with -0.172; and “UniProt Q91X84 (peptide sequence: HHGLVERPAR, peptide start residue: 91)”, with 0.609. The value for “UniProt Q91X46 (peptide sequence: FSQTLQR, peptide start residue: 62)” was 0.178; that for “UniProt Q91VH2 (peptide sequence: FGSAIPIPSLPDK, peptide start residue: 301)” was 0.175. On to “UniProt Q91ZE0 (peptide sequence: FDYVWLR, peptide start residue: 71)”, for which the log2 fold change is -0.278. As to “UniProt Q91W96 (peptide sequence: GKYFNVER, peptide start residue: 467)”, the log2 fold change is -0.333. The value for “UniProt Q91XS1 (peptide sequence: EAVSSLCSVSSK, peptide start residue: 756)” was 0.0512; that for “UniProt Q91YL2 (peptide sequence: YFCHCCSVEIVPR, peptide start residue: 11)” was -0.155. Take “UniProt Q91YM2 (peptide sequence: KKEEDQASQGYK, peptide start residue: 1188)”: the log2 fold change is -1.13. The value for “UniProt Q91YN0 (peptide sequence: VQPSQFR, peptide start residue: 248)” was 0.178.

For “UniProt Q91VH6 (peptide sequence: IFILGPSHHVPLSR, peptide start residue: 74)”, the log2 fold change was determined as 0.192. The value for “UniProt Q8VI78 (peptide sequence: CTDFQSANLLR, peptide start residue: 35)” was 0.123; that for “UniProt Q91WM2 (peptide sequence: VPVVFVTNAGNILQHNK, peptide start residue: 83)” was 0.176; that for “UniProt Q8VIJ6 (peptide sequence: ALAEIAKAELDDTPMRGR, peptide start residue: 335)” was 0.745. The value for “UniProt Q91XD6 (peptide sequence: RWETVPVSQSLQTNK, peptide start residue: 130)” was -0.311; that for “UniProt Q91VT1 (peptide sequence: MSDLIPDEALR, peptide start residue: 222)” was 0.374; that for “UniProt Q91WG1 (peptide sequence: AEGETESPRPK, peptide start residue: 2)” was -0.131. The value for “UniProt Q91ZU1 (peptide sequence: LCLRPWPVDTK, peptide start residue: 383)” was 0.362.

For “UniProt Q91ZP6 (peptide sequence: AAALAAAAADAPQR, peptide start residue: 169)”, the log2 fold change is 0.371. The value for “UniProt Q91VK1 (peptide sequence: DEKEKFEPTVFR, peptide start residue: 20)” was 0.518; that for “UniProt Q91Z96 (peptide sequence: LTEEELLDREFDLLR, peptide start residue: 622)” was 0.29; that for “UniProt Q91VK4 (peptide sequence: IYLEENYER, peptide start residue: 122)” was 0.17. Then “UniProt Q91VC7 (peptide sequence: ARGPGGSPSGLQKR, peptide start residue: 20)”, with -1.14; and “UniProt Q91XD2 (peptide sequence: HLCRPCHNR, peptide start residue: 116)”, with -0.593; and “UniProt Q91WK1 (peptide sequence: WHSMLANEK, peptide start residue: 131)”, with 0.295. The value for “UniProt Q91V76 (peptide sequence: ETHAFGRD, peptide start residue: 308)” was -0.336. Regarding “UniProt Q91Z38 (peptide sequence: LKEEMLGK, peptide start residue: 243)”, the log2 fold change stood at 0.191. Then “UniProt Q91YT0 (peptide sequence: YLVVNADEGEPGTCKDREIMR, peptide start residue: 112)”, with -0.723; and “UniProt Q91WF3 (peptide sequence: ADTEHRDPYLR, peptide start residue: 427)”, with -0.58.
